In doi:10.1101/869172:
Where two headings read alike, the source gives them in different places. These are yes or no findings as the source states them, for the method shown. In cells and extracts the contact can be indirect. These calls come from enrichment with a bait or labelling near it, and not all partners need be listed. For some of these results: No binding means not detected with the bait. Sequences can lack the tags named with a protein.

T1: TtAgo (Thermus thermophilus Argonaute, TT_P0026) (T. thermophilus (endogenous in strain HB27)) (UniProt Q746M7)
T1 sequence: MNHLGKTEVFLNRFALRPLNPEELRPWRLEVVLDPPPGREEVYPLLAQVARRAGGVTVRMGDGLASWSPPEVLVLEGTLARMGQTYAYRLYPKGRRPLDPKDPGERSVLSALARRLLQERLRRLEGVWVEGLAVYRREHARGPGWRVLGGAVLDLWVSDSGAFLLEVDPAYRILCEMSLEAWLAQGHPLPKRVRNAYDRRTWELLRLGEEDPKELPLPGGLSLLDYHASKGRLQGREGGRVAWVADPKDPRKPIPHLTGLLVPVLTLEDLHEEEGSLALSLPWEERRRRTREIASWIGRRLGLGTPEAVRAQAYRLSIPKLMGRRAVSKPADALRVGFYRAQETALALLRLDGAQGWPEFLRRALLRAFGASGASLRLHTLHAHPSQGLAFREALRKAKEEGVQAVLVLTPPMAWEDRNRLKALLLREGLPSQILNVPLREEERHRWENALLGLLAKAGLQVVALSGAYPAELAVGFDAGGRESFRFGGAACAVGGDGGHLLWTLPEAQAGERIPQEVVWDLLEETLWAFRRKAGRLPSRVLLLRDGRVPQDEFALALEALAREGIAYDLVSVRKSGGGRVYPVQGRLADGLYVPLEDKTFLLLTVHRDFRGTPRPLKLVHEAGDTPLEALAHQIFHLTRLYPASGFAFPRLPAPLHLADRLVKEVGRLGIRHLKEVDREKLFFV

T2: TtAgo^D478A,D546A (catalytically inactive double point-mutant TtAgo) (T. thermophilus (endogenous in strain HB27)) (UniProt Q746M7)
T2 sequence: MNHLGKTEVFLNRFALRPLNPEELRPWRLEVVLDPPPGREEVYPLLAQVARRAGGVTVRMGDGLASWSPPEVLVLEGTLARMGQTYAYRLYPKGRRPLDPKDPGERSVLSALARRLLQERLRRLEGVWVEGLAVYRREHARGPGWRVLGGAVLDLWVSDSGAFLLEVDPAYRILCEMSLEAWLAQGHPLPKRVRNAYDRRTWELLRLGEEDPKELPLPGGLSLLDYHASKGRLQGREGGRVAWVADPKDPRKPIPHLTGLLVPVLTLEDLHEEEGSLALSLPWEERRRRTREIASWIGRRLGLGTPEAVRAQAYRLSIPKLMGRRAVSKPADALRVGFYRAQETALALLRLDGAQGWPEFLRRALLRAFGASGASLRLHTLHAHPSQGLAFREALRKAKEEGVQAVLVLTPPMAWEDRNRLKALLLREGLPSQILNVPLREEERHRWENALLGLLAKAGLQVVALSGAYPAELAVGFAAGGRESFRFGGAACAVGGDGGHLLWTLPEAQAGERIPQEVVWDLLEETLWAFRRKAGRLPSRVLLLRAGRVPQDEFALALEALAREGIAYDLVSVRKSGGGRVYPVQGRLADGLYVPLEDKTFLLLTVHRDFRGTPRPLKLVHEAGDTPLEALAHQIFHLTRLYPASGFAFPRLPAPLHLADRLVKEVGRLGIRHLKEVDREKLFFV


Experiments:
Test in all cases: affinity purification with mass spectrometry
[1] = target: T1, TtAgo (Thermus thermophilus Argonaute, TT_P0026) (T. thermophilus (endogenous in strain HB27))
[2] = target: T1, TtAgo (Thermus thermophilus Argonaute, TT_P0026) (T. thermophilus (endogenous in strain HB27)); remark: listed apart in the source
[3] = target: T2, TtAgo^D478A,D546A (catalytically inactive double point-mutant TtAgo) (T. thermophilus (endogenous in strain HB27))

| Molecule | binding [1] | binding [2] | binding [3] |
| --- | --- | --- | --- |
| AddA | binds | binds | no binding |
| AddB | binds | binds | no binding |
| Rad52 |  | binds |  |
| RecJ (from UniProt Q5SJ47 1-666) (enzyme) |  | binds |  |
| ssDNA-binding protein SSB |  | binds |  |
| ArgR (XerA) (protein, UniProt Q5SI21 1-164) MGNKAERHRAIQEIVRREEIGTQKELVERLRQLGFEVTQATVSRDIAELGLARIALGKGRHRYVLPAADLPENAYEELKRQFGLFVRDVDRGGNLLVVKTAEGHASGIAYLLDRLRRDEIVGTLAGDDTILVVARTEEAAQALEDEFAGLLVEGRALRRALSGS |  | binds |  |

Now from value to molecule:

| binding [1] | binding [2] | binding [3] | Molecule |
| --- | --- | --- | --- |
|  | binds |  | FtsE |
|  | binds |  | GyrB (from UniProt Q5SHZ4 1-634) (enzyme) |
|  | binds |  | PolA (from UniProt Q72JS8) (enzyme) |
|  | binds |  | PriA (from UniProt Q72GA6) |
|  | binds |  | RepA |
|  | binds |  | Topol (from UniProt Q72GB7) (enzyme) |
|  | binds |  | histone-like protein HU |
|  | binds |  | GyrA (enzyme, UniProt Q5SIL4 1-805) MAQVLPVEITEELKQSFINYAMSVIVDRALPDVRDGLKPVQRRILFGAYQEGVLPGRKHVKSAKIVGEVMGKYHPHGDAAIYDALVRMAQPWNLRYPLIDGQGNFGSIDGDPPAAQRYTEARLSPIGAEMLLDIDKDTVDFRPNYDGSLKEPEVLPAAIPNLLVNGASGIAVGMATSLPPHNLSEVVDALVAMIENPAITLEEVMRHLPGPDFPTGGKLSKKGIKEAYATGRGSLKVRAKVRVEEKGQRPVLVVTEIPYQVNKASLIAQIAALVKAKKIEDIVGLRDESDRQGLRIAIELKRGANPQVVLNQLYKHTALQTSFTVNLLAIVDGEPKVLSLLDLMRHYLDHRKEVVRRRSLFELRKAEERAHVLEGLLIALDHIDEVIALIRGSEDAPKARIALMERFGLSEAQAQAILDMRLQRLVALEREKLLEEYRGLMEEIARLKAILEDEARLLAEVKADLLRVKEKYGDARRTLITEFEETFNPEDLIEDEPMVITLTAQGFLKRLPLESYRAQGRGGKGLLAGRTKEEDEATHVFVADAHDDLLLFTNRGRVYRLKVYELPEMGRQARGVHVKSLLPLAEDEEVAALLSVRGLDQEGYLVFATERGLVKRTALKEYQNLGQAGLIAIRLQEGDRLVGVALSDPEDEAILATQEGQAIRFPLEEVRATGRDTQGVIGVRFKKPEDRVVSLVVVKPGEMVDLLSVSTRGYGKRTPLSEYPLQGRGGMGVITYAVSTKVGRLAALLKVRGGEDLLVLSRRGLAIRTPVAEIRQYSRATAGVRVMNLPEDDEVASAFVVEEEK |
|  | binds |  | UvrB (protein, UniProt Q56243 1-665) MTFRYRGPSPKGDQPKAIAGLVEALRDGERFVTLLGATGTGKTVTMAKVIEALGRPALVLAPNKILAAQLAAEFRELFPENAVEYFISYYDYYQPEAYVPGKDLYIEKDASINPEIERLRHSTTRSLLTRRDVIVVASVSAIYGLGDPREYRARNLVVERGKPYPREVLLERLLELGYQRNDIDLSPGRFRAKGEVLEIFPAYETEPIRVELFGDEVERISQVHPVTGERLRELPGFVLFPATHYLSPEGLEEILKEIEKELWERVRYFEERGEVLYAQRLKERTLYDLEMLRVMGTCPGVENYARYFTGKAPGEPPYTLLDYFPEDFLVFLDESHVTVPQLQGMYRGDYARKKTLVDYGFRLPSALDNRPLRFEEFLERVSQVVFVSATPGPFELAHSGRVVEQIIRPTGLLDPLVRVKPTENQILDLMEGIRERAARGERTLVTVLTVRMAEELTSFLVEHGIRARYLHHELDAFERQALIRDLRLGHYDCLVGINLLREGLDIPEVSLVAILDADKEGFLRSERSLIQTIGRAARNARGEVWLYADRVSEAMQRAIEETNRRRALQEAYNLEHGITPETVRKEVRAVIRPEGYEEAPLEADLSGEDLRERIAELELAMWQAAEALDFERAARLRDEIRALEARLQGVRAPEPVPGGRKRKRR |
